Among the data in PubChem BioAssay AID248 (DTP/NCI, 2004) are T/C and survivor count values, retold here.

The assay has as its system L1210 leukemia ip in BDF1 mice, survival T/C. The assay can be described thus: NCI In Vivo Anticancer Drug Screen. Data for tumor model L1210 Leukemia (intraperitoneal) in B6D2F1 (BDF1) mice. Particulars: T/C endpoint: mean survival time, higher T/C = longer survival.
Where [1] appears, read: dose: 100.0 mg/kg/injection, schedule: Q04DX002 (ip), vehicle: Klucel (hydroxypropylcellulose) (HPC).
Where [2] appears, read: dose: 400.0 mg/kg/injection, schedule: Q01DX001 (ip), vehicle: saline.
The mark [3] stands for this setting: dose: 400.0 mg/kg/injection, schedule: Q01DX009 (ip), vehicle: Klucel (hydroxypropylcellulose) (HPC).
Setting [4] is: dose: 400.0 mg/kg/injection, schedule: Q01DX001 (ip), vehicle: carboxymethylcellulose (CMC).
Where [5] appears, read: dose: 200.0 mg/kg/injection, schedule: Q01DX009 (ip), vehicle: saline.
Where [6] appears, read: dose: 400.0 mg/kg/injection, schedule: Q01DX009 (ip), vehicle: saline.
The mark [7] stands for this setting: dose: 100.0 mg/kg/injection, schedule: Q01DX009 (ip), vehicle: Klucel (hydroxypropylcellulose) (HPC).
The mark [8] stands for this setting: dose: 50.0 mg/kg/injection, schedule: Q01DX009 (ip), vehicle: Klucel (hydroxypropylcellulose) (HPC).
Setting [9] is: dose: 100.0 mg/kg/injection, schedule: Q04DX003 (ip), vehicle: Klucel (hydroxypropylcellulose) (HPC).
Where [10] appears, read: dose: 200.0 mg/kg/injection, schedule: Q01DX009 (ip), vehicle: Klucel (hydroxypropylcellulose) (HPC).
[11] abbreviates: dose: 200.0 mg/kg/injection, schedule: Q04DX003 (ip), vehicle: Klucel (hydroxypropylcellulose) (HPC).
[12] abbreviates: dose: 400.0 mg/kg/injection, schedule: Q04DX003 (ip), vehicle: Klucel (hydroxypropylcellulose) (HPC).
[13] abbreviates: dose: 200.0 mg/kg/injection, schedule: Q01DX001 (ip), vehicle: saline.
Setting [14] is: dose: 100.0 mg/kg/injection, schedule: Q01DX001 (ip), vehicle: saline.
Where [15] appears, read: dose: 400.0 mg/kg/injection, schedule: Q04DX003 (ip), vehicle: saline with Tween-80.

The list is a part of this screen's results and no random one: it gathers tests that were run many times, whatever their T/C, doses with no T/C, and many T/C values between a quarter and a half above the control. Further doses and runs are listed elsewhere. T/C gives the treated animals as a percentage of the vehicle group. Some doses have a count of surviving animals in place of a T/C: the source files T/C as zero there, which appears to mark a toxic dose or a test without result, not a measured value. Some survivor counts are full or nearly so, which does not show that the dose was tolerated: the source hardly ever lists a survival T/C far under the control, and the zero likely stands for such cases as well. Survivors were counted at the toxicity check, usually on the fifth day, unless a day is given; later deaths do not show. Schedules are NCI's codes, taken here to give the interval after Q, in days (D) or hours (H), and the number of doses after X. Additions like (4×) give the number of equal values in this list. Some schedules carry Z or #; the key to these is not given. Some entries hold several experiments; the results are listed from low to high. For survival time, this PubChem deposit counts one and a half times the control or more as active, and values a quarter to a half above the control carry no call in these data; other NCI protocols may use other cut-offs. Some T/C values carry the count of animals alive at the toxicity check (mostly the fifth day); without a count, all were alive then.

Turning to `CCN(CCCl)CCCNCc1c2ccccc2c(C)c2ccccc12`, for the setting “dose: 2.5 mg/kg/injection, schedule: Q01DX005 (ip), vehicle: saline”, the T/C is 127 % of control. Further, the survivor count is, setting by setting: (dose: 10.0 mg/kg/injection, schedule: Q01DX005 (ip), vehicle: saline) 0 of 6; (dose: 15.0 mg/kg/injection, schedule: Q01DX009 (ip), vehicle: saline) 1 of 6; (dose: 30.0 mg/kg/injection, schedule: Q01DX009 (ip), vehicle: saline) 4 of 6; (dose: 45.0 mg/kg/injection, schedule: Q01DX009 (ip), vehicle: saline) 0 of 6.
`CNc1ccccc1CCc1ccccc1CO`: the survivor count by setting is: under setting [1], 3 of 3; (dose: 200.0 mg/kg/injection, schedule: Q04DX002 (ip), vehicle: Klucel (hydroxypropylcellulose) (HPC)) 3 of 3.
As for `NC(=S)N1CCCCC1`, the survivor count under setting [2] was 2 of 4.
With `O=C(O)/C(=C\c1ccccc1[N+](=O)[O-])c1cccc(Cl)c1`, the survivor count under setting [3] is on record as 0 of 6.
On the same count and under the same terms, then `C=CCNC(=S)Nc1cccc(OC(=O)Nc2ccc(Cl)c(Cl)c2)c1`, with 6 of 6.
For `FC(F)=C(F)I`, the survivor count (dose: 400.0 mg/kg/injection, schedule: Q04DX002 (ip), vehicle: other) is reported as 0 of 3.
As to `C=CCc1c2c(ccc(=O)c1O)-c1c(cc(OC)c(OC)c1OC)CCC2NC(C)=O` (stereo not drawn), under setting [4], the T/C is 130 % of control [3 of 4 alive] and the survivor count is given as 2 of 4. Besides, the survivor count (dose: 600.0 mg/kg/injection, schedule: Q01DX001 (ip), vehicle: carboxymethylcellulose (CMC)) is 1 of 4 and 2 of 4.
Consider `C=C[C@@](C)(O)CC/C=C(/C)CCC=C(C)C`, for which the survivor count by setting is: (dose: 100.0 mg/kg/injection, schedule: Q01DX009 (ip), vehicle: saline) 6 of 6; under setting [5], 2 of 6; under setting [6], 0 of 6.
Regarding `O=[N+]([O-])/C=C/c1ccc(Cl)cc1`, the survivor count under setting [7] was 0 of 6.
`CCNC1CCCCC1`: the survivor count (dose: 200.0 mg/kg/injection, schedule: Q01DX009 (ip), vehicle: saline with Tween-80) is on record as 0 of 6.
With `CN(C(=O)CCl)c1ccccc1`, the survivor count under setting [8] is recorded as 5 of 5; the survivor count under setting [7] is listed as 1 of 6; the survivor count under setting [9] is reported as 1 of 6; the survivor count under setting [10] is reported as 0 of 6; the survivor count under setting [11] is 0 of 6; the survivor count under setting [12] is on record as 1 of 6.
For `Oc1ccccc1Sc1ccccc1O`, under setting [13], the survivor count is given as 4 of 4.
With `Cc1cc2oc(=O)c3c(c2c(O)c1CN1CCN(C)CC1)CCCC3`, the survivor count under setting [2] is recorded as 1 of 6.
Take `CN=C(NC)c1ccc(NC(=O)Nc2ccc(C)c(NC(=O)Nc3ccc(C(=NC)NC)cc3)c2)cc1`: the survivor count (dose: 36.0 mg/kg/injection, schedule: Q01DX Z (ip), vehicle: water) is 0 of 6.
For `O=C(C[n+]1cccc2ccccc21)c1ccc(-c2ccc(C(=O)C[n+]3cccc4ccccc43)cc2)cc1`, the survivor count is 0 of 6 under setting [14], 0 of 6 under setting [13] and 0 of 6 under setting [2].
Turning to `O=C1NC(=O)C([N+](=O)[O-])C(=O)N1`, under “dose: 100.0 mg/kg/injection, schedule: Q04DX003 (ip), vehicle: saline”, the survivor count is 4 of 6.
`Cc1cccc(NC=O)c1`: the survivor count under setting [15] was 2 of 6.
As to `CN(C)CCNc1ccccn1`, the survivor count (dose: 300.0 mg/kg/injection, schedule: Q01DX001 (ip), vehicle: saline) is reported as 0 of 6.
For the compound `C=CCP(c1ccccc1)c1ccccc1`, the survivor count (dose: 400.0 mg/kg/injection, schedule: Q04DX002 (ip), vehicle: saline) was 0 of 3.
Turning to `O=[N+]([O-])c1ccccc1CN1CCCCC1`, the survivor count runs as follows: (dose: 40.0 mg/kg/injection, schedule: Q01DX001 (ip), vehicle: saline) 1 of 4; (dose: 50.0 mg/kg/injection, schedule: Q01DX001 (ip), vehicle: saline) 1 of 4; (dose: 80.0 mg/kg/injection, schedule: Q01DX001 (ip), vehicle: saline) 0 of 4; under setting [14], 0 of 4; under setting [13], 0 of 4; under setting [2], 0 of 4.
On to `O=C(/C=C/c1ccccc1)NN1CCCCC1`, for which the survivor count under setting [3] is 0 of 6 and the survivor count under setting [12] is listed as 1 of 6.
For the compound `O=C1OCC/C1=C\C1CC=CCC1` (stereo not drawn), the T/C was 138 % of control (dose: 100.0 mg/kg/injection, schedule: Q04DX003 (ip), vehicle: saline with Tween-80) and 134 % of control (dose: 200.0 mg/kg/injection, schedule: Q04DX003 (ip), vehicle: saline with Tween-80). In addition, the survivor count under setting [15] is given as 2 of 6.
In the case of `O=C1C=CC(=O)N1c1ccc([N+](=O)[O-])cc1`, the survivor count by setting is: (dose: 12.5 mg/kg/injection, schedule: Q04DX003 (ip), vehicle: Klucel (hydroxypropylcellulose) (HPC)) 6 of 6; (dose: 25.0 mg/kg/injection, schedule: Q04DX003 (ip), vehicle: Klucel (hydroxypropylcellulose) (HPC)) 1 of 6; (dose: 29.0 mg/kg/injection, schedule: Q01DX009 (ip), vehicle: Klucel (hydroxypropylcellulose) (HPC)) 0 of 6; (dose: 45.0 mg/kg/injection, schedule: Q01DX009 (ip), vehicle: Klucel (hydroxypropylcellulose) (HPC)) 0 of 6; (dose: 65.0 mg/kg/injection, schedule: Q01DX009 (ip), vehicle: Klucel (hydroxypropylcellulose) (HPC)) 0 of 6.
In the case of `CCC(CO)NC1CCCCC1` (stereo not drawn), the survivor count reads like this: (dose: 150.0 mg/kg/injection, schedule: Q01DX001 (ip), vehicle: carboxymethylcellulose (CMC)) 0 of 6; (dose: 300.0 mg/kg/injection, schedule: Q01DX001 (ip), vehicle: carboxymethylcellulose (CMC)) 0 of 6.
`CNc1cc(C(C)C)ccc1C`: the survivor count under setting [7] is reported as 1 of 6, the survivor count under setting [10] is 0 of 6 and the survivor count under setting [3] is listed as 0 of 6.
Regarding `CCOc1ccc(C(=O)Nc2ccc(C3=NCCN3)cc2)cc1C(=O)Nc1ccc(C2=NCCN2)cc1`, the T/C is, setting by setting: (dose: 120.0 mg/kg/injection, schedule: Q01DX Z (ip), vehicle: carboxymethylcellulose (CMC)) 148 % of control; (dose: 240.0 mg/kg/injection, schedule: Q01DX Z (ip), vehicle: carboxymethylcellulose (CMC)) 136 % of control. Besides, the survivor count (dose: 480.0 mg/kg/injection, schedule: Q01DX Z (ip), vehicle: carboxymethylcellulose (CMC)) is reported as 4 of 6.
For the compound `CC(CCC(C)OS(C)(=O)=O)OS(C)(=O)=O` (stereo not drawn), the survivor count is 6 of 6 (dose: 4.0 mg/kg/injection, schedule: Q01DX010 (ip), vehicle: saline); 3 of 3 under setting [8]; 3 of 3 (dose: 50.0 mg/kg/injection, schedule: Q04DX002 (ip), vehicle: Klucel (hydroxypropylcellulose) (HPC)); 3 of 3 under setting [7]; 3 of 3 under setting [1]; 6 of 6 (2×) under setting [9]. Also, the survivor count is 3 of 3 under setting [10], 6 of 6 (2×) under setting [11] and 6 of 6 (2×) under setting [12].
As to `CCC(C)C(CCN(CC)CC)(CNC(=O)CN(CC)CC)c1cccc2ccccc12` (stereo not drawn), the survivor count is on record as 2 of 6 under setting [5] and 0 of 6 under setting [6].
As to `CNC(=O)NNC(=O)CNC(=O)Nc1cccc(C(F)(F)F)c1`, the survivor count was 1 of 6 under setting [7], 0 of 6 under setting [10] and 0 of 6 under setting [3].
